In PubChem BioAssay AID540256 (National Center for Advancing Translational Sciences (NCATS), 2011):
Out of some 300,000 compounds screened, about 3,700 (1.2%) were called active. The shares of active, inactive and inconclusive entries below differ from those in the screen. The call rests on the fitted dose curve; tested in HEK293 cells. Potencies beside an inconclusive call are fits to weak or partial responses and may not hold up.

assay: qHTS for Inhibitors of binding or entry into cells for Lassa Virus; conditions: Lassa virus pseudotype entry inhibition, cell reporter; activity change, negative = inhibition: at 37.9 µM (top of the series) unless noted; further: nearly all actives have a fitted effect of over 50% in size
On the % scale 0 is the no-effect control and ±100 the full control effect; potency means the concentration at half of the fitted maximal effect.

SMILES | Potency | activity change, negative = inhibition
O=[N+]([O-])c1ccc(S(=O)(=O)N2CCn3cccc3C2c2ccc(Br)cc2)cc1 (centres undefined) | inconclusive: 7.08 µM [inhibitor, partial curve, poor fit] | 
COc1ccc(-c2csc3ncnc(NCCN4CCOCC4)c23)cc1 | inconclusive: 31.6 µM [inhibitor, single point] | 
Cc1csc(NC(=O)CSc2nnc(C)s2)n1 | inconclusive: 35.5 µM [activator, single point] | 
Cc1ccc(-n2ncc3c(NCCCN(C)C)ncnc32)cc1Cl | inconclusive: 3.55 µM [activator, partial curve, poor fit] | 
CC(C)CNC(=O)CCc1nc(-c2ccccc2)no1 |  | inactive: -9.35%
CO[C@H](C1CCCCC1)[C@H](C)C=CCC(=O)OCCCc1ccccc1 | inconclusive: 0.376 µM [inhibitor, partial curve, poor fit] | 
CC(C)(C)OC(=O)N1CCCC(C(=O)Nc2ccc(C(=O)NCc3ccccc3)cc2)C1 (centres undefined) | inconclusive: 1.12 µM [inhibitor, full curve, poor fit] | 
COc1ccc(CC(=O)OCC(=O)Nc2ncc(Cl)c(C)c2Cl)cc1 | inconclusive: 35.5 µM [activator, single point] | 
Cc1cc(C)nc(N/N=C/c2ccccc2OCc2ccccc2)n1 | inconclusive: 6.31 µM [inhibitor, single point] | 
Cc1nn(-c2ccccc2)c2nc(C3CC3)cc(C(=O)Nc3cccc(F)c3)c12 | inconclusive: 15.8 µM [inhibitor, single point] | 
CNC(=O)c1cc2ccc(OC)cc2oc1=O |  | inactive: 5.72%
O=C(c1cccc(-c2nnc(-c3ccccc3)o2)c1)N1CCCCCC1 |  | inactive: 5.34%
COc1ccc(S(=O)(=O)Oc2cc(C(=S)N3CCOCC3)ccc2OC)cc1 | inconclusive: 11.2 µM [inhibitor, partial curve] | 
CN(CC(=O)Nc1ccc(Cl)cc1)C(=O)c1ccc(COc2ccccc2)cc1 | inconclusive: 7.94 µM [inhibitor, partial curve, poor fit] | 
Cc1cc(C)c(S(=O)(=O)Cc2ccccc2)c(Cl)n1 | inconclusive: 3.55 µM [inhibitor, single point] | 
COc1cccc(-c2cc(C(=O)Nc3cnn(Cc4ccc(Cl)cc4Cl)c3)no2)c1 | inconclusive: 22.4 µM [inhibitor, single point] | 
O=C(CC1N=C2c3ccccc3N=C(SCc3cccc(F)c3)N2C1=O)NCc1cccs1 (centres undefined) |  | inactive: 9.16% [at 46.1 µM]
Cc1noc(C)c1S(=O)(=O)Nc1ccccc1N1CCOCC1 | inconclusive: 0.562 µM [inhibitor, single point] | 
Brc1ccsc1/C=N/Nc1ccccc1 |  | inactive: 2.81%
CCOc1cccc2cc(-c3csc(NC(=O)CCC(=O)N4CCC(C)CC4)n3)c(=O)oc12 | inconclusive: 0.58 µM [inhibitor, single point] | 
O=C(Oc1ccc2c(c1)O/C(=C\c1ccncc1)C2=O)c1ccccc1 | inconclusive: 35.5 µM [activator, single point] | 
CCOCCCn1c(=N)c(C(=O)NCc2ccc3c(c2)OCO3)cc2c(=O)n3cccc(C)c3nc21 | inconclusive: 29.1 µM [inhibitor, single point] | 

SMILES | Potency | activity change, negative = inhibition
CCOc1ccc(CN2CCNC(=O)C2CC(=O)NCCc2cnccn2)cc1 (centres undefined) | inconclusive: 35.5 µM [activator, single point] | 
CC(=O)NCc1ccc(S(=O)(=O)NC2CCN(Cc3ccccc3)CC2)cc1 | inconclusive: 11.2 µM [activator, partial curve, poor fit] | 
Cn1nc(C(C)(C)C)cc1NC(=O)Nc1cc(Cl)cc(Cl)c1 | inconclusive: 11.2 µM [inhibitor, partial curve] | 
Cc1ccc(-c2nnc(CCC(=O)N(C)Cc3nccs3)o2)s1 | inconclusive: 14.1 µM [activator, single point] | 
COc1ccc(S(=O)(=O)N(CC(=O)Nc2ccc(S(=O)(=O)N3CCOCC3)cc2)c2ccccc2)cc1 | inconclusive: 25.1 µM [inhibitor, single point] | 
COc1cc(C2c3c([nH]c(=O)[nH]c3=O)Nc3ccc4ccccc4c32)cc(OC)c1OC (centres undefined) | inconclusive: 5.01 µM [inhibitor, full curve, poor fit] | 
CC(C)CCn1c(=O)c2ccccc2n2c(CCl)nnc12 | inconclusive: 35.5 µM [inhibitor, single point] | 
CCOC(=O)/C(C#N)=C\c1ccc(CC)s1 |  | inactive: 18.6%
Cc1cc(C)c(C)c(S(=O)(=O)N2CCC(C(=O)OCC(=O)NC3CCS(=O)(=O)C3)CC2)c1C (centres undefined) |  | inactive: -2.3%
CCOc1ccccc1NC(=O)CSc1nnc(Cc2ccc(OC)cc2)c(=O)n1N |  | inactive: -14.8%
Cc1ccc(C(=O)N(CC(=O)Nc2sc(C)c(C)c2C(N)=O)C2CCCC2)cc1 | inconclusive: 35.5 µM [inhibitor, single point] | 
CC(C)(C)C(=O)NC1(C(F)(F)F)NC(=O)N(c2ccccc2F)C1=O (centres undefined) | inconclusive: 5.62 µM [inhibitor, single point] | 
CC(CN1CCOCC1)OC(=O)COc1ccc(F)cc1 (centres undefined) |  | inactive: -12.8%
Cc1ccccc1NC(=O)c1cc[n+]([O-])cc1 | inconclusive: 10 µM [activator, partial curve, poor fit] | 
Cc1c(C(=O)OC2CCC(C)CC2)[nH]c2c1C(=O)CC(c1ccc(F)cc1)C2 (centres undefined) |  | inactive: -22.3% [at 46.1 µM]
Cc1ccc(S(=O)(=O)Nc2cccc(C(=O)NCC3(N4CCCCC4)CCCCC3)c2)cc1F | inconclusive: 35.5 µM [inhibitor, single point] | 
CCOC(=O)c1cccc(NC(=O)CCc2c(C)nn(-c3ccc(N4CCCCC4)nn3)c2C)c1 | inconclusive: 20 µM [inhibitor, single point] | 
COc1ccccc1NC(=O)c1ncn(-c2ccccc2)n1 | inconclusive: 5.01 µM [activator, single point] | 
CCCCN1C(=O)c2[nH]nc(-c3ccccc3O)c2C1c1ccc(OCc2ccccc2)c(OC)c1 (centres undefined) | inconclusive: 1.26 µM [inhibitor, full curve, poor fit] | 
Cc1ccccc1NC(=O)c1c(NC(=O)c2ccccc2F)sc2c1CCC(C)C2 (centres undefined) | inconclusive: 35.5 µM [inhibitor, partial curve, poor fit] | 
CN(Cc1ccccc1)C(=O)c1cccc(C(=O)N(C)Cc2ccccc2)c1 | inconclusive: 2.82 µM [inhibitor, full curve] | 
O=C(NCC1OCCc2ccccc21)c1ccc(NC(=O)c2ccccc2Cl)cc1 (centres undefined) | inconclusive: 12.6 µM [inhibitor, partial curve, poor fit] | 

SMILES | Potency | activity change, negative = inhibition
O=C(CCl)NN=C(c1ccccc1)c1ccccc1 |  | inactive: -15.1% [at 46.1 µM]
Cc1ccc(C(=O)NNC2=Nc3cc([N+](=O)[O-])ccc3OC2)cc1 | inconclusive: 0.891 µM [activator, full curve, poor fit] | 
Cc1ccc(N2N=C(c3ccc(Br)cc3)CCC2=O)cc1 | inconclusive: 35.5 µM [inhibitor, single point] | 
Cc1nn2c(=O)cc(COc3ccc(/C=C(\C#N)C(=O)Nc4ccccc4C)cc3)nc2s1 | inconclusive: 2.82 µM [activator, partial curve, poor fit] | 
CC1CC(C)CN(CCCNS(=O)(=O)c2cc(Br)cc3c2N(C(=O)C2CC2)CC3)C1 (centres undefined) | inconclusive: 14.1 µM [activator, partial curve, poor fit] | 
CC1(C)CC(=O)C(C(=S)Nc2ccccc2)=C(NC2CC(C)(C)NC(C)(C)C2)C1 | inconclusive: 11.2 µM [inhibitor, partial curve] | 
CC(=O)c1c(C)[nH]c2ccccc2c1=O |  | inactive: 1.06%
CCOc1cc(/C=N\NC(=O)c2c(C)nc3ccccn23)ccc1O |  | inactive: 25.4%
OC(COc1ccc(OCC(O)CN2CCN(Cc3ccccc3)CC2)cc1)CN1CCN(Cc2ccccc2)CC1 (centres undefined) | inconclusive: 7.94 µM [inhibitor, partial curve, poor fit] | 
Cc1nc(C(=O)NNC(=O)Nc2ccc(Cl)cc2)cs1 | inconclusive: 0.794 µM [inhibitor, single point] | 
COc1cc(/C=N/n2c(-c3cc(C)[nH]n3)n[nH]c2=S)ccc1O | inconclusive: 1.26 µM [inhibitor, full curve, poor fit] | 
O=C(c1ccc(CSc2nc3ccncc3[nH]2)cc1)N1CCN(c2cccc(Cl)c2)CC1 | active: 25.9 µM | 
CC(C)C(=O)Nc1nc2cc3c(cc2s1)OCCO3 | active: 4.47 µM | 
CCOc1ccc(C2C(C(=O)Nc3ccc(OC)cc3)=C(C)Nc3nc(CCCO)nn32)cc1 (centres undefined) | inconclusive: 20 µM [inhibitor, single point] | 
Cc1c(-c2ccccc2)c(=O)oc2c(CN3CCOCC3)c(O)ccc12 |  | inactive: -8.08% [at 46.1 µM]
Cc1ccc(C(=O)N2CCN(c3ccc(NC(=O)COc4ccccc4C)cc3)CC2)cc1 | inconclusive: 22.4 µM [inhibitor, single point] | 
COc1ccc(NC(=O)C(=O)NCC2CCCN2S(=O)(=O)c2cc(C)ccc2C)cc1 (centres undefined) | inconclusive: 7.94 µM [inhibitor, partial curve, poor fit] | 
Cc1ccc(-n2ncc3c(NCc4cccnc4)ncnc32)c(C)c1 | inconclusive: 29.1 µM [inhibitor, single point] | 
Cc1ccc(S(=O)(=O)NCCc2nc3ccccc3[nH]2)cc1 |  | inactive: -0.0556% [at 46.1 µM]
COc1ccc(N(C)S(=O)(=O)c2cccc(C(=O)N3CCN(S(=O)(=O)c4ccc(C)cc4)CC3)c2)cc1 | inconclusive: 0.891 µM [inhibitor, full curve, poor fit] | 

Among those listed so far, these have a tert-butyl group.
SMILES | Potency | activity change, negative = inhibition
CC(C)(C)OC(=O)N1CCCC(C(=O)Nc2ccc(C(=O)NCc3ccccc3)cc2)C1 (centres undefined) | inconclusive: 1.12 µM [inhibitor, full curve, poor fit] | 
Cn1nc(C(C)(C)C)cc1NC(=O)Nc1cc(Cl)cc(Cl)c1 | inconclusive: 11.2 µM [inhibitor, partial curve] | 
CC(C)(C)C(=O)NC1(C(F)(F)F)NC(=O)N(c2ccccc2F)C1=O (centres undefined) | inconclusive: 5.62 µM [inhibitor, single point] | 
